# Measured values published in PMC10110478.
# Protein sequences, listed by entry. Tags and fused reporters are not part of them.
# UniProt P28482: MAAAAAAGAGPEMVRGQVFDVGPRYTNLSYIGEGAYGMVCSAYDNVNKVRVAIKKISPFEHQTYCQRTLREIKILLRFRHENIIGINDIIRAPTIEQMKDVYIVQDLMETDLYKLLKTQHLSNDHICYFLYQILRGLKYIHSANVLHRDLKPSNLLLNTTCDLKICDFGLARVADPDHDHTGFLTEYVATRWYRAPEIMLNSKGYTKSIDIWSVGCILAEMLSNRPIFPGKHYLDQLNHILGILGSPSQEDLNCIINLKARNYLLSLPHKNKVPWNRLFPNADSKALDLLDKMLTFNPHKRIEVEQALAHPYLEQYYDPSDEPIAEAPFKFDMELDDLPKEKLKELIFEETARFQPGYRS
# UniProt P27361: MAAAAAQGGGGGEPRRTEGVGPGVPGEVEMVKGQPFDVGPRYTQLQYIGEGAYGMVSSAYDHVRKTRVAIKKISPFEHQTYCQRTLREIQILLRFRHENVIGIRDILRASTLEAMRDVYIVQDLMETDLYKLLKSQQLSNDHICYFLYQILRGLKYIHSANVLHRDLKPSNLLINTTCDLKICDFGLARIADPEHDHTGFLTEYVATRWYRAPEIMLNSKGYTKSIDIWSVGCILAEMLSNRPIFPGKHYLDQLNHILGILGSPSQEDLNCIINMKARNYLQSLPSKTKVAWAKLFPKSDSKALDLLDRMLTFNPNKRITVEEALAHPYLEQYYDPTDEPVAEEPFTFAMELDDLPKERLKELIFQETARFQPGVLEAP
# UniProt Q8N6T7: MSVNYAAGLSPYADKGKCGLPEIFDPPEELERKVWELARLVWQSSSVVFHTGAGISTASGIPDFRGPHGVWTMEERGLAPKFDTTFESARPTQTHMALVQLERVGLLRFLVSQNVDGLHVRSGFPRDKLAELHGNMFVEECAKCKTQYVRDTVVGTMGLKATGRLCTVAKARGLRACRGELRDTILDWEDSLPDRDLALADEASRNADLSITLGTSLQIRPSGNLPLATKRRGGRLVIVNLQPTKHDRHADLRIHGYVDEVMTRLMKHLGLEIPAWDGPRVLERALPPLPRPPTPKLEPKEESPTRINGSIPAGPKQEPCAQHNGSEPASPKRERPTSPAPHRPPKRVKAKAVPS
# Results are given in words; binding and its absence hold for the method and conditions named. Binding seen in cells or lysates may run through a third protein.
# Key:
# [1] = target: extracellular signal-regulated kinase 2 (ERK2) (human (endogenous in A549)) (UniProt P28482); experiment: co-IP; lysate of SIRT6-knockdown A549 cells; protein A/G magnetic beads with anti-ERK1/2 antibody or normal rabbit IgG, overnight at 4 °C; lysis buffer 50 mM Tris pH 7.5, 150 mM NaCl, 5 mM EDTA, 5 mM EGTA, 1% NP40; western blot
# [2] = target: extracellular signal-regulated kinase 1 (ERK1) (human (endogenous in A549)) (UniProt P27361); experiment: as above
# [3] = target: Sirtuin6 (SIRT6), overexpressed from plasmid in A549 cells (UniProt Q8N6T7); experiment: co-IP; lysate of SIRT6-overexpression A549 cells; protein A/G magnetic beads with anti-SIRT6 antibody or normal rabbit IgG, overnight at 4 °C; lysis buffer 50 mM Tris pH 7.5, 150 mM NaCl, 5 mM EDTA, 5 mM EGTA, 1% NP40; western blot
binding [1],binding [2],binding [3],Substance
no binding,no binding,–,"Sirtuin6 (SIRT6), endogenous in A549 cells (from UniProt Q8N6T7 1-355) (enzyme)"
–,–,no binding,extracellular signal-regulated kinase 1 (ERK1) (from UniProt P27361 1-379) (enzyme)
–,–,no binding,extracellular signal-regulated kinase 2 (ERK2) (from UniProt P28482 1-360) (enzyme)
